From the supplement of paper PMC10735217
Counter-ions that a name gives are not always drawn. The list shows a part of the results. This data set is noisy: repeats of one test often differ as much as different tests do.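 Human kidney-derived cells stably carry a construct in which eight TEAD-binding elements drive luciferase, measured by luminescence in a drug-repurposing library screen. A hit is any compound whose signal exceeds the plate mean by more than five robust Z scores.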

Test system: HEK293A TEAD-LUC reporter
Experiment: TEAD-luciferase reporter activity (YAP activation), robust Z score vs plate; higher = stronger YAP/TEAD activation
Details: 24 h

| Structure (SMILES) | TEAD-luciferase reporter activity (compound concentration: 200 nM) | TEAD-luciferase reporter activity (compound concentration: 2 uM) | TEAD-luciferase reporter activity (compound concentration: 10 uM) |
| --- | --- | --- | --- |
| Nc1cc(Cl)ccc1C(=O)CC(N)C(=O)O (stereo unspecified) | inactive: -0.0181 | inactive: 0.121 | inactive: 0.231 |
| COC(=O)CC[C@]1(C)[C@H]2CC[C@]3(C)[C@@H]([C@H](C)CCCC(C)C)CC[C@H]3[C@@H]2CCC12OCCO2 | inactive: -1.64 | inactive: -0.485 | inactive: -0.722 |
| Cc1cc(C)cc(CC(=O)O)c1 [(3,5-dimethylphenyl)acetic acid] | inactive: -0.722 | inactive: 4.11 | inactive: -1.18 |
| CC(=O)NCC(=O)N1Cc2ccccc2CC2(CCCCN2CC2CCNC2)C1 (stereo unspecified) | inactive: -1.51 | – | – |
| CCOc1ccccc1C(N)=O [2-Ethoxybenzamide] | inactive: 2.26 | – | inactive: -0.61 |
| CCOc1ccccc1C(N)=O [Ethenzamide] | – | inactive: -0.933 | – |
| O=C1C=CC(O)(c2cc3ccccc3n2S(=O)(=O)c2ccccc2)C=C1 | inactive: 2.62 | inactive: 3.86 | active: 9.39 |
| C#CCOc1ccc(N)cc1C(=O)NCCCC [parsalmide] | inactive: -0.618 | inactive: 0.0669 | inactive: -0.325 |
| CC12CCC(CC1)C(C)(C)O2 [Eucalyptol] | inactive: 0.118 | inactive: -0.862 | inactive: 1.79 |
| C[C@@H]1CC2C3C[C@H](F)C4=CC(=O)C=C[C@]4(C)C3[C@@H](O)C[C@]2(C)[C@H]1C(=O)CO (stereo partly specified) | inactive: 0.949 | inactive: -1.38 | inactive: 0.848 |
| CCNCCCCNC[C@@H]1C[C@H]1CNCCCCNCC | inactive: -0.945 | inactive: -1.29 | inactive: -1.47 |
| CN(C)CCCN1C(=O)C2C(C1=O)[C@H]1C[C@@H]2CC1OC(=O)c1c[nH]c2ccccc12 (stereo partly specified) | inactive: -0.898 | inactive: -1.96 | inactive: -0.718 |
| CC[C@H]1OC(=O)C[C@@H](O)[C@H](C)[C@@H](OC2OC(C)[C@@H](O)C(N(C)C)[C@H]2O)[C@@H](CC=O)C[C@@H](C)C(=O)/C=C/C(C)=CC1CO (stereo partly specified) [mycaminosyl tylonolide] | inactive: -1.95 | inactive: -0.319 | inactive: 2.53 |
| CN(C)CCCC(=O)N1Cc2ccccc2CC2(CCCCN2Cc2ccccc2)C1 (stereo unspecified) | active: 10.2 | – | inactive: -0.572 |
| COc1cc2c(cc1OC)C(C)N(S(C)(=O)=O)CC2 (stereo unspecified) | inactive: -0.33 | inactive: 1.34 | inactive: 1.59 |
| CCc1cn([C@H]2O[C@H](CO)[C@@H](O)[C@@H]2F)c(=O)[nH]c1=O | inactive: 0.577 | inactive: -1.37 | inactive: -1.05 |
| COc1cc(/C=C2/C(C)=C(CC(=O)NCc3ccccc3)c3cc(F)ccc32)cc(OC)c1OC | inactive: 0.949 | inactive: 0.121 | active: 6.02 |
| CCCCCCCCCCCCCCCC(=O)OCC(COC(=O)c1cccnc1)OC(=O)CCCCCCCCCCCCCCC (stereo unspecified) | inactive: -1.35 | inactive: 0.862 | inactive: -0.198 |
| COc1nsnc1NS(=O)(=O)c1ccc(N)cc1 | inactive: -0.423 | inactive: -1.62 | inactive: 2.14 |
| O=C1NC(=O)C(c2ccccc2)(c2ccccc2)N1 [phenytoin sodium] | inactive: -1.63 | inactive: 0.947 | inactive: 1.13 |
| NC(=O)c1cc[n+](CC2=C(C(=O)[O-])N3C(=O)[C@@H](NC(=O)[C@@H](c4ccccc4)S(=O)(=O)[O-])[C@H]3SC2)cc1 [Cefsulodin sodium salt hydrate] | inactive: 0.441 | – | inactive: 0.599 |
| NC(=O)c1cc[n+](CC2=C(C(=O)[O-])N3C(=O)[C@@H](NC(=O)[C@@H](c4ccccc4)S(=O)(=O)[O-])[C@H]3SC2)cc1 [cefsulodin] | – | inactive: 0.374 | – |
| O=C(NCCCOc1ccc2[nH]c(=O)ccc2c1)N(C1CC1)[C@@H]1CCCC[C@H]1O | inactive: -0.584 | inactive: -2.04 | active: 7.11 |
| O=C(N/N=C/C=C/c1ccc([N+](=O)[O-])o1)c1ccc([N+](=O)[O-])s1 | inactive: -1.06 | inactive: -0.336 | inactive: 1.75 |
| CCC[C@@H]1O[C@@H]2C[C@H]3[C@@H]4C[C@H](F)C5=CC(=O)CCC5(C)[C@@]4(F)[C@@H](O)CC3(C)C2(C(=O)CO)O1 (stereo partly specified) | inactive: 3.97 | inactive: 1.53 | inactive: 0.504 |
| N=C(N)Nc1ccc(CNC(=O)N2CCN(C(=O)O[C@@H]3CO[C@H]4[C@@H]3OC[C@H]4OC(=O)N3CCN(C(=O)NCc4ccc(NC(=N)N)cc4)CC3)CC2)cc1 | inactive: -0.49 | inactive: 0.785 | inactive: -0.961 |
| O=c1cc(N2CCOCC2)oc2c(-c3ccccc3)cccc12 | inactive: -2.15 | – | inactive: -0.85 |

Single records, as listed above.
O=C(N/N=C/C=C/c1ccc([N+](=O)[O-])o1)c1ccc([N+](=O)[O-])s1 is listed as TEAD-luciferase reporter activity (compound concentration: 200 nM): inactive: -1.06; TEAD-luciferase reporter activity (compound concentration: 2 uM): inactive: -0.336; TEAD-luciferase reporter activity (compound concentration: 10 uM): inactive: 1.75
CCOc1ccccc1C(N)=O [2-Ethoxybenzamide] is listed as TEAD-luciferase reporter activity (compound concentration: 200 nM): inactive: 2.26; TEAD-luciferase reporter activity (compound concentration: 10 uM): inactive: -0.61

Going on with the list.

| Structure (SMILES) | TEAD-luciferase reporter activity (compound concentration: 200 nM) | TEAD-luciferase reporter activity (compound concentration: 2 uM) | TEAD-luciferase reporter activity (compound concentration: 10 uM) |
| --- | --- | --- | --- |
| COc1ccc(C(=O)Nc2c(Cl)c[n+]([O-])cc2Cl)c2ccc(C(F)(F)F)nc12 | inactive: -0.177 | inactive: -0.888 | inactive: 1.1 |
| CNCCC=C1c2ccccc2CCc2ccccc21 [Nortriptyline hydrochloride] | – | inactive: -1.75 | – |
| CNCCC=C1c2ccccc2CCc2ccccc21 | inactive: -0.801 | – | inactive: -1.22 |
| CCc1nc2ccc(NC(=O)N(C)C(C)C)cc2c(=O)n1Cc1ccc(-c2ccccc2S(=O)(=O)NC(=O)OCCC2CC2)cc1F | inactive: -1.74 | inactive: 0.973 | active: 13.3 |
| CS(=O)(=O)Nc1ccc2oc3c(OC(F)F)ccc(C(=O)Nc4c(Cl)cncc4Cl)c3c2c1 [Oglemilast] | inactive: 1.8 | inactive: 0.758 | inactive: -0.146 |
| O=c1[nH]c(=S)n(C[C@H]2CCCO2)c2[nH]cnc12 | inactive: -0.467 | inactive: -0.217 | inactive: -0.773 |
| CC(C)(Cc1ccccc1)NCC(O)c1ccc(O)c(NS(C)(=O)=O)c1 (stereo unspecified) [zinterol] | inactive: -0.509 | inactive: -0.137 | inactive: -0.699 |
| CCN(CC)CCOc1ccc([C@H]2C[C@]3(C)[C@@H](O)CC[C@H]3[C@@H]3CCc4c(ccc(O)c4Cl)[C@H]32)cc1 | inactive: -0.938 | inactive: -1.64 | inactive: 3 |
| C[C@]12CCC3=C4CCC(=O)C=C4CC[C@H]3[C@@H]1CC[C@@]2(O)CC#N [Dienogest] | inactive: -0.71 | inactive: -0.579 | inactive: -0.309 |
| O=C1c2ccccc2-n2c1nc1ccccc1c2=O [Tryptanthrin] | inactive: 0.0524 | inactive: -0.251 | inactive: 4.35 |
| COc1ccccc1N1CCN(C(=O)c2cccc3c(=O)c(C)c(-c4ccccc4)oc23)CC1 | inactive: -1.99 | inactive: -0.238 | inactive: -2.97 |
| O=C(O)c1cccc(C[C@@H]2COc3ccc(OCc4nc5cc(F)ccc5s4)cc3[C@@H]2O)c1 | inactive: -0.202 | inactive: -0.0031 | inactive: 3.08 |
| CCNCc1cncc(-c2ccc3c(c2)/C(=C2/N=c4cc(F)cc(F)c4=N2)NN3)c1C | inactive: -1.95 | inactive: -2.58 | inactive: 0.298 |
| COc1ccc(C(Cl)=C(c2ccc(OC)cc2)c2ccc(OC)cc2)cc1 | inactive: -1.61 | inactive: 0.0303 | inactive: -0.693 |
| N[C@H]1CCN(c2nc3c(cc2F)c(=O)c(C(=O)O)cn3C2CC2)C1 | inactive: -0.853 | inactive: -1.05 | inactive: -0.692 |
| COCCOCCOCCOCCOC(=O)OC[n+]1ccc(N/C(=N/C#N)NCCCCCCOc2ccc(Cl)cc2)cc1 [Teglarinad chloride] | inactive: 2.42 | inactive: 4.36 | active: 10.8 |
| O=C(Nc1cc(C(F)(F)F)cc(C(F)(F)F)c1)Nc1cc(Br)ccc1-c1nn[nH]n1 | inactive: -1.35 | inactive: -0.319 | inactive: 3.69 |
| Nc1nc(Nc2ccc3c(c2)CC[C@@H](N2CCCC2)CC3)nn1-c1cc2c(nn1)-c1ccccc1CCC2 | inactive: -1.43 | inactive: -1.26 | inactive: 1.52 |
| Cc1cc(NS(=O)(=O)c2ccc(C(C)(C)C)c(F)c2)n(-c2ccc(N)c3ncccc23)n1 | inactive: -0.81 | inactive: -0.139 | inactive: -0.552 |
| O=C(Nc1ccc(Cl)cn1)[C@H]1CN(CC(F)F)C[C@@H]1C(=O)Nc1ccc(-n2ccccc2=O)cc1F | inactive: -0.325 | inactive: -0.306 | inactive: -0.0372 |
| CC(=O)CC(C)(C)c1c(O)c2ccccc2oc1=O | inactive: 2.9 | inactive: -1.39 | inactive: -0.64 |
| COc1cc2cc(c1Cl)N(C)C(=O)C[C@H](OC(=O)[C@H](C)N(C)C(C)=O)[C@]1(C)O[C@H]1[C@H](C)[C@@H]1C[C@@](O)(NC(=O)O1)[C@H](OC)/C=C\C=C(\C)C2 | inactive: 2.77 | inactive: 3.99 | active: 5.13 |
| COc1cc(-c2cc(=O)c3cc(OCC(=O)O)ccc3o2)cc(OC)c1OC | inactive: -0.209 | inactive: -1.74 | inactive: -1.25 |
| CN(C)CCNc1ccc2c3c(nn2CCNCCO)-c2cnccc2C(=O)c13 | inactive: -1.3 | inactive: 0.723 | inactive: -1.88 |
| Cc1nc2c([nH]1)-c1ccccc1N(C(=O)c1ccc(NC(=O)c3ccccc3-c3ccccc3)cc1)CC2 [conivaptan hydrochloride] | inactive: -0.152 | inactive: -0.196 | inactive: -0.592 |
| CCCCNC(=O)NC1CCN(c2ncnc3cc(OC)c(OC)cc23)CC1 | inactive: -0.744 | inactive: -0.884 | inactive: -0.15 |
